Experimental data: paper doi:10.1101/2021.07.13.452210
Results are given in words; binding and its absence hold for the method and conditions named. For some assays here: In cells and extracts the contact can be indirect. Some entries that bind do so weakly or less than the wild type. Tags and fused reporters may be left off the sequences shown.

T1: MNR-GFP (UniProt Q2KHM9)
T1 sequence: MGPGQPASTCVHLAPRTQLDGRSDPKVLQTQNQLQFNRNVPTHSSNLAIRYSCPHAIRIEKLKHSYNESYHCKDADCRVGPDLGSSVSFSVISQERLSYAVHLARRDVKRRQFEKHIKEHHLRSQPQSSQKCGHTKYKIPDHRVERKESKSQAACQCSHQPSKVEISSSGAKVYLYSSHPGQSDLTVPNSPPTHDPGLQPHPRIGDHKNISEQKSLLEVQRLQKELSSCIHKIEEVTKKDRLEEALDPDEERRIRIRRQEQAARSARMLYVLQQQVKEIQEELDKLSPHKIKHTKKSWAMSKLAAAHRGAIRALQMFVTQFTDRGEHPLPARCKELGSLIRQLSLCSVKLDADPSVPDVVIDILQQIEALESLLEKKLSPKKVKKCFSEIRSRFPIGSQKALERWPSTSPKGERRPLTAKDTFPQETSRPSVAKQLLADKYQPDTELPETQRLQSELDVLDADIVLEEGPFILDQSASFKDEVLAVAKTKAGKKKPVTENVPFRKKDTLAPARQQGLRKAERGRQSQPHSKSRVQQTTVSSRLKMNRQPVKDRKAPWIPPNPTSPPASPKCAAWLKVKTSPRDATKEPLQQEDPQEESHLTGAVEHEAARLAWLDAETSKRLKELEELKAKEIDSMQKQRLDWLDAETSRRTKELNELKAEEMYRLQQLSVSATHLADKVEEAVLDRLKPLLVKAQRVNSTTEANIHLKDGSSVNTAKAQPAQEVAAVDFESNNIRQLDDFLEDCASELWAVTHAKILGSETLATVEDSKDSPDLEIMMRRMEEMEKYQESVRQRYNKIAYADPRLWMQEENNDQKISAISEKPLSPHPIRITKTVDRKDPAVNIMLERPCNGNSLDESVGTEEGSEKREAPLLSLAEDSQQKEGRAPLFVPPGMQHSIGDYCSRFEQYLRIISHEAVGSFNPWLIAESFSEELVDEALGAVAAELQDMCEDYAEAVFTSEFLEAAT

T2: GFP-tagged mouse FOPNL (mouse) (UniProt Q9CZS3)
T2 sequence: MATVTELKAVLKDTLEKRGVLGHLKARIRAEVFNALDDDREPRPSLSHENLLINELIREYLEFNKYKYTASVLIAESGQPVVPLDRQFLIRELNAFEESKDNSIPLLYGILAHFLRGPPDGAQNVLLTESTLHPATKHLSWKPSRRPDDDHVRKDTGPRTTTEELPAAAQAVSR

B1: OFD1-mCherry (protein, UniProt O75665 1-1012)
chain: MMAQSNMFTVADVLSQDELRKKLYQTFKDRGILDTLKTQLRNQLIHELMHPVLSGELQPRSISVEGSSLLIGASNSLVADHLQRCGYEYSLSVFFPESGLAKEKVFTMQDLLQLIKINPTSSLYKSLVSGSDKENQKGFLMHFLKELAEYHQAKESCNMETQTSSTFNRDSLAEKLQLIDDQFADAYPQRIKFESLEIKLNEYKREIEEQLRAEMCQKLKFFKDTEIAKIKMEAKKKYEKELTMFQNDFEKACQAKSEALVLREKSTLERIHKHQEIETKEIYAQRQLLLKDMDLLRGREAELKQRVEAFELNQKLQEEKHKSITEALRRQEQNIKSFEETYDRKLKNELLKYQLELKDDYIIRTNRLIEDERKNKEKAVHLQEELIAINSKKEELNQSVNRVKELELELESVKAQSLAITKQNHMLNEKVKEMSDYSLLKEEKLELLAQNKLLKQQLEESRNENLRLLNRLAQPAPELAVFQKELRKAEKAIVVEHEEFESCRQALHKQLQDEIEHSAQLKAQILGYKASVKSLTTQVADLKLQLKQTQTALENEVYCNPKQSVIDRSVNGLINGNVVPCNGEISGDFLNNPFKQENVLARMVASRITNYPTAWVEGSSPDSDLEFVANTKARVKELQQEAERLEKAFRSYHRRVIKNSAKSPLAAKSPPSLHLLEAFKNITSSSPERHIFGEDRVVSEQPQVGTLEERNDVVEALTGSAASRLRGGTSSRRLSSTPLPKAKRSLESEMYLEGLGRSHIASPSPCPDRMPLPSPTESRHSLSIPPVSSPPEQKVGLYRRQTELQDKSEFSDVDKLAFKDNEEFESSFESAGNMPRQLEMGGLSPAGDMSHVDAAAAAVPLSYQHPSVDQKQIEEQKEEEKIREQQVKERRQREERRQSNLQEVLERERRELEKLYQERKMIEESLKIKIKKELEMENELEMSNQEIKDKSAHSENPLEKYMKIIQQEQDQESADKSSKKMVQEGSLVDTLQSSDKVESLTGFSHEELDDSW
B2: myc-FOPNL (protein, UniProt Q96NB1 1-174)
chain: MATVAELKAVLKDTLEKKGVLGHLKARIRAEVFNALDDDREPRPSLSHENLLINELIREYLEFNKYKYTASVLIAESGQPVVPLDRQFLIHELNAFEESKDNTIPLLYGILAHFLRGTKDGIQNAFLKGPSLQPSDPSLGRQPSRRKPMDDHLRKEEQKSTNIEDLHVSQAVNR
B3: overexpressed CEP90 (protein, UniProt Q8WXW3 1-757)
chain: MSRKISKESKKVNISSSLESEDISLETTVPTDDISSSEEREGKVRITRQLIERKELLHNIQLLKIELSQKTMMIDNLKVDYLTKIEELEEKLNDALHQKQLLTLRLDNQLAFQQKDASKYQELMKQEMETILLRQKQLEETNLQLREKAGDVRRNLRDFELTEEQYIKLKAFPEDQLSIPEYVSVRFYELVNPLRKEICELQVKKNILAEELSTNKNQLKQLTETYEEDRKNYSEVQIRCQRLALELADTKQLIQQGDYRQENYDKVKSERDALEQEVIELRRKHEILEASHMIQTKERSELSKEVVTLEQTVTLLQKDKEYLNRQNMELSVRCAHEEDRLERLQAQLEESKKAREEMYEKYVASRDHYKTEYENKLHDELEQIRLKTNQEIDQLRNASREMYERENRNLREARDNAVAEKERAVMAEKDALEKHDQLLDRYRELQLSTESKVTEFLHQSKLKSFESERVQLLQEETARNLTQCQLECEKYQKKLEVLTKEFYSLQASSEKRITELQAQNSEHQARLDIYEKLEKELDEIIMQTAEIENEDEAERVLFSYGYGANVPTTAKRRLKQSVHLARRVLQLEKQNSLILKDLEHRKDQVTQLSQELDRANSLLNQTQQPYRYLIESVRQRDSKIDSLTESIAQLEKDVSNLNKEKSALLQTKNQMALDLEQLLNHREELAAMKQILVKMHSKHSENSLLLTKTEPKHVTENQKSKTLNVPKEHEDNIFTPKPTLFTKKEAPEWSKKQKMKT
B4: endogenous OFD1 (protein, UniProt O75665 1-1012)
chain: B1 chain
B5: endogenous CEP90/PIBF1 (protein, UniProt Q8WXW3 1-757)
chain: B3 chain

Legend:
[1] = target: T1, MNR-GFP; assay: microtubule recruitment
[2] = target: T2, GFP-tagged mouse FOPNL (mouse); assay: co-IP

Row | Binder | binding [1] | binding [2]
1 | B1 | binds | –
2 | B2 | binds | –
3 | B3 | binds | –
4 | B4 | – | binds
5 | B5 | – | binds
